Data source: PubChem BioAssay AID602196 (INSERM, 2012)

- Assay: 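Modifiers of cisplatin sensitivity in A549 cells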
- System: human A549 lung cancer cells
- Knock-down reagent: siRNA pair against human genes
- Duration: 48 h transfection before cisplatin; time from cisplatin to read-out not stated
- Treatment: cisplatin at a dose killing half of control-siRNA cells; exact dose and duration not given
- Detection: 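Cisplatin cell death as a shift from the 50% death seen with control siRNA; siRNAs toxic or growth-blocking alone scored 0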
- Direction: two-siRNA summed score (-2 to +2): higher = both siRNAs protect from cisplatin killing; -2 means both sensitise; mean protection from cisplatin (shift in death) and protection from cisplatin (shift in death), siRNA C and protection from cisplatin (shift in death), siRNA D: higher = protection from cisplatin killing
- Hit rule: 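Each siRNA scores 0 if harmful alone by LDH or WST-1, otherwise +1 if it reduces and -1 if it increases cisplatin killing; a gene is active when both siRNAs agree (sum +2 or -2)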
- Meaning of the calls: active = both siRNAs shift cisplatin killing the same way; inactive = no consistent shift, or siRNA harmful alone
Here is one part, drawn at random, of about 23,000 reagents. 455 of all reagents (2%) count as active. 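Active includes both protection and sensitisation; some change values fall well beyond the stated -50 to +50 range.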 Entries without a mark were called inactive. Reagents against one gene are numbered here. Reagent sequences are not shown. The record does not give: the amount of reagent.

no.	target gene	reagent no.	two-siRNA summed score (-2 to +2)	mean protection from cisplatin (shift in death) (%)	protection from cisplatin (shift in death), siRNA C (%)	protection from cisplatin (shift in death), siRNA D (%)
1	SIRPA	1	0	6.9	12.8	1
2	TMOD2	1	1	12.6	15	10.2
3	LOC440855	1	2 (active)	17.7	19.7	15.7
4	COL23A1	1	0	13.6	11.1	16
5	RLN3	1	0	6	-11.5	23.6
6	TGFBR3	1	0	-0.5	-8.1	7.1
7	CALCB	1	-1	-11.5	-9.2	-13.7
8	RUBCNL	1	0	-6.6	-1.5	-11.8
9	AMZ2	1	-1	-17.9	-3.9	-31.9
10	S100B	1	-1	-5.5	10.7	-21.6
11	LOC441458	1	1	3.6	15	-7.8
12	ZSWIM8	1	0	-0.7	-2.9	1.5
13	TMEM145	1	0	1.8	-4.9	8.6
14	SYT14	1	1	7.4	-1.5	16.2
15	PIM1	1	1	7.1	25.4	-11.2
16	ZNF626	1	0	-8.8	-8.8	-8.8
17	PSMB9	1	0	10.8	13.4	8.3
18	LOC442092	1	0	4.5	-7.9	16.9
19	PVALEF	1	0	-16.3	-20.1	-12.5
20	CST2	1	0	0.5	-0.6	1.7
21	TSR3	1	0	3.3	0.8	5.8
22	PLPPR3	1	0	-3.4	-2.7	-4.1
23	ZNF449	1	1	15.1	9.9	20.3
24	TAP2	1	0	5.2	3.5	6.8
25	LOC401460	1	1	14.2	10.3	18.1
26	PLXDC2	1	0	11.7	11	12.4
27	PRSS30P	1	0	-1.4	-6.2	3.3
28	GLIPR1L1	1	2 (active)	21.5	23.7	19.2
29	FITM2	1	0	9.5	13.7	5.2
30	MYF5	1	0	2.7	-5.6	11
31	OR52B2	1	1	8	-7.4	23.4
32	TASOR2	1	0	6.3	11.1	1.5
33	CRISP1	1	0	6.8	10.1	3.5
34	ZNF619	1	1	5	-5.7	15.6
35	LOC441593	1	1	22.1	22.5	21.6
36	NOXO1	1	1	13.1	3.6	22.6
37	ARHGEF9	1	0	5.8	16.1	-4.6
38	IRX4	1	0	11.8	19.7	3.9
39	RSAD1	1	0	2	1.2	2.7
40	LINC00661	1	0	7.3	14.2	0.3
41	PBX1	1	-1	-9.9	-14.8	-4.9
42	NUP43	1	1	15	14	16.1
43	FLJ40712 (retired record)	1	0	-1.4	-7.6	4.8
44	IFNAR1	1	0	-12.2	-23.5	-0.9
45	HMGB1P1	1	1	12.2	12.7	11.7
46	TMEM257 (retired record)	1	0	-4.9	3.5	-13.2
47	ST6GALNAC2	1	0	14.5	14.9	14.1
48	FANCD2	1	1	18.7	29.9	7.6
49	TRAPPC6A	1	0	-5.4	-1.4	-9.5
50	SCNM1	1	0	6.1	-2.8	14.9
51	RHNO1	1	0	1.3	7.9	-5.3
52	CALN1	1	0	11.8	13.6	10
53	CALN1	2	0	14.4	11.1	17.7
54	CERS6	1	-1	-11.1	6.4	-28.6
55	LOC441130	1	0	-6.4	-2.5	-10.2
56	MSTO1	1	0	-3.2	-1.9	-4.5
57	TMEM179B	1	0	-0.2	1.7	-2.1
